# Primary screen of a compound library

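Viability assay of Plasmodium falciparum sporozoites; the read-out is not stated. The concentration is filed as 10 mM, unlikely as a test dose, so the dose is not known. Direction is inferred from retests: higher values go with lower viability. Strong results were mostly tested again. Size under these conditions: about 34,000 compounds, about 280 of them at 50% or above in at least one test.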

Results are given as percent effect. How 0% and 100% were set is not recorded. Most values in the screen are low, and negative values occur. The compounds are a random part of those screened. Two or more numbers in one place are separate tests of the same structure; such repeats can differ widely.

Compound | effect
COCCC(=O)N1CCCC1c1nc(C)c2c(n1)N(C)C(=O)CC2 (centres undefined) | 1.101%
Cc1nc(CN2CCN(C)C(=O)C23CCN(CC2CCCC2)CC3)cs1 | 2.14%
c1cc(CN2CCC(c3ccncc3)CC2)cc(Cn2cccn2)c1 | 0.4386%
CCC(CC)C(=O)N1CCOC2(CNC2)C1 | -0.5133%
CCn1cc2c(n1)CN(Cc1ccc(F)cc1)CC2COCC1CC1.O=C(O)C(F)(F)F (centres undefined) | 23.06%
Cc1ccc(NC2CCN(C(=O)c3cc(C)no3)CC2)nn1 | 6.791%
Cc1ccc(-c2noc(CN3CCn4c(nnc4C4CC4)C3)n2)cc1 | 9.801%
COCc1noc(C2(c3ccc(Br)cc3)CCOCC2)n1 | 4.353%
[H][C@]12CC[C@@H](N(C)c3cccnn3)[C@@]1([H])CN(Cc1cccc(C(=O)O)c1)C2 | 3.293%
O=C(CCc1ccccc1)N1CCCCC1Cn1cccn1 (centres undefined) | 4.592%
Cc1ccc(CNC2CCCc3c2cnn3Cc2ccccc2)s1.Cl (centres undefined) | -20.07%
Cn1ccnc1CN1CCCN(C(=O)c2ccc(Cl)o2)CC1 | -10.02%
CCN1CC2(CC1=O)CN(C(C)=O)CCN(C(=O)c1ccco1)C2 (centres undefined) | 1.403%
CCC(=O)N1CCCc2c(cnn2C)C1 | -2.462%
O=C1CCC2(CCN(Cc3ccoc3)CC2)N1OCc1ccccc1F | 5.351%
O=C(O)C(F)(F)F.O=C(O)C(F)(F)F.c1ccc(O[C@H]2CO[C@@]3(CCN(Cc4ccc5c(c4)OCO5)C3)C2)nc1 | -3.733%
CC(Cn1cccn1)NC(=O)NCCc1ccc(Cl)s1 (centres undefined) | 3.043%
CCN(CC1CN(Cc2nccn2CC)CCO1)c1cccnn1 (centres undefined) | -5.637%
[H][C@@]12CCN(CC3CCOCC3)C[C@@]1([H])[C@H](C(=O)N1CCCC1)CCO2 | -0.5963%
CCN(Cc1ccc(Cl)s1)S(=O)(=O)CC | -2.113%
O=C(O)C(F)(F)F.[H][C@]12CCCN(Cc3ccc(C)o3)[C@@]1([H])CN(C(=O)c1ccco1)C2 | 7.186%
Cc1ccc(OCC(=O)N2CCOCC(O)(CN3CCCC3)C2)cc1C (centres undefined) | 6.488%
CCc1ccsc1C(=O)N1CCCN(Cc2nccn2CC)CC1 | 10.97%
COc1ccc(C[C@H]2CN(C(=O)c3ncccn3)CC[C@@H]2OC)cc1 | -4.466%
O=C(c1cc[nH]n1)N1CCCC1C1CCN(Cc2ccccc2)CC1 (centres undefined) | -2.368%
O=C(C[S+]([O-])C1CCCC1)NCCOc1cccc(Cl)c1 (centres undefined) | 4.973%
CCN1C(=O)CCC12CCN(S(=O)(=O)c1ccccc1)CC2 | 0.3422%
c1cnc(-c2nc(CN3CCN(CC4CC4)CC3)cs2)nc1 | 84.72% and 73.85% and 60.32%
NC(=O)c1cnn2c(C3CCCN(C4CCOCC4)C3)ccnc12 (centres undefined) | 6.345%
Cn1nc(Cn2ccnc2)c2c1CN(C(=O)c1ccoc1)C2.O=C(O)C(F)(F)F | 8.42%
O=C(NCCn1ccnc1)N1CCN(Cc2cccs2)CC1 | 5.867%
Cc1nc(C)n(CC2CCCN2Cc2cn3cc(Cl)ccc3n2)n1 (centres undefined) | 4.666%
CN(C)Cc1nn(C)c2c1CN(C(=O)c1cccc(C#N)c1)C2 | 15.7%
COc1cccc(S(=O)(=O)CCN2CCC3(CC2)OCCO3)c1 | -1.717%
Cc1c(C2CCCN(C(=O)c3cccnc3)C2)n2c(nc1=O)CCC2 (centres undefined) | 2.486%
[H][C@@]12CCN(C(C)=O)C[C@]1([H])[C@H](C(=O)Nc1cccnc1C)CCO2 | 2.14%
[H][C@@]12C[C@@H](c3nnc(C4CC4)o3)O[C@]1([H])CN(C(=O)c1cscn1)C2 | -4.134%
CCc1nccn1C1CCCN(C(=O)c2ccc3[nH]nnc3c2)C1 (centres undefined) | -2.007%
CCN(CC1CCCN(CCc2cccc(OC)c2)C1)C(=O)CO (centres undefined) | 1.228%
CCc1ccc(CNC[C@H]2C[C@@H](CO)N(C)[C@H]2c2ccccc2F)o1 | -18.93%
CCc1nc(CN2CCCN(Cc3noc(C4CC4)n3)CC2)cs1 | 9.298%
Cc1nnc(C(C)N2CCN(Cc3ccc4c(c3)OCO4)CC2)o1 (centres undefined) | 4.96%
O=C(NCC1CCCO1)c1csc(Cc2ccccc2)n1 (centres undefined) | 22.2%
CN(c1ccccc1C(=O)O)S(=O)(=O)c1cccc2cccnc12 | -11.1%
O=C(O)C(F)(F)F.O=C(O)C(F)(F)F.[H][C@@]12CCN(Cc3ccncc3)C[C@]1([H])O[C@@H](C(=O)NCC1CCOCC1)C2 | -4.004%
CCn1c(C(=O)N2CCN(C(=O)COC)CC2)cc2ccccc21 | 12.1%
CCn1nnc2cc(C(=O)N3CCCC3Cn3cc(C)cn3)ccc21 (centres undefined) | -4.03%
[H][C@]12CC[C@]([H])(CC(=O)N(CC(=O)N(C)CCCOc3ccccc3Cl)C1)N2 | 8.045%
Cc1ccc(CN2CCC3(CC2)C(=O)N(C)c2ccccc23)s1.O=C(O)C(F)(F)F | -16.01%
CO[C@@H]1CC[C@@H](N(C)C(=O)COc2ccc(F)cc2)[C@H]1O | 3.534%
CC(OCC(F)(F)F)C(=O)Nc1ccc(-n2cncn2)nc1 (centres undefined) | -2.775%
Cc1csc(N2CCN(CC(=O)NCc3ccccn3)CC2C)n1 (centres undefined) | -1.162%
COc1ccc(CCC(=O)NC2CCC(O)CC2)cc1OC (centres undefined) | 2.852%
CC(=O)N1CCN([C@@H]2CN(C(=O)Cc3ccccc3C)C[C@H]2O)CC1 | 0.3746%
NC(=O)C1CCN(c2nc3nccc(-c4ccccn4)c3c(=O)[nH]2)CC1 | -0.1127%
O=c1oc(-c2ccc(F)cc2)nn1CN1CCN(CC2CC2)CC1 | 0.3253%
[H][C@]12CC[C@]([H])(CN(C(=O)Cc3c(C)nc(C)[nH]c3=O)C1)N(CC1CCC1)C2 | -10.15%
Fc1ccc(C2(CNC3=NCCN3)CCCC2)cc1.I | -4.211%
Cc1cc(C(=O)N2CCn3cc(CN4CCCC4)nc3C2)no1 | 10.05%
COc1ccc2c(c1)c(-c1nc(C)ncc1CN)cn2C | 5.824%
O[C@@H]1CN(Cc2cccnc2)C[C@H]1Oc1ccccc1 | -157.6%
CN(C)CCn1c2c(ccc1=O)CC(NCc1cnn(C)c1)CC2.O=C(O)C(F)(F)F.O=C(O)C(F)(F)F (centres undefined) | 4.726%
Cc1cccc(C)c1OCCNC(=O)C(C)n1cncn1 (centres undefined) | 11.6%
CC(=O)NCC(=O)N1CCC2(CC1)C(=O)N(CC1CC1)c1ccccc12 | -1.313%
CCN(CC)C(CNC(=O)c1c(C)noc1C(C)C)c1ccsc1 (centres undefined) | 10.33%
CN(C(=O)c1ccncc1)c1nnc(C2CCOC2)s1 (centres undefined) | 12.19%
Cc1c(C)n(Cc2ccncc2)c2nc3c(c(N)c12)CCCCC3 | -10.75%
Cn1cccc1C(=O)N1CCN(Cc2cccnc2)c2ncccc2C1.O=C(O)C(F)(F)F.O=C(O)C(F)(F)F | 3.879%
Cc1nn(C)cc1CN1CCCC1c1cccc(Nc2nccs2)n1 (centres undefined) | 2.09%
CCc1noc(CN2CCN(C(=O)C3CC3)CC2)n1 | -1.019%
Cc1noc(C)c1CCC(=O)N[C@@H]1CCC[C@@H](Oc2cccnc2)[C@@H]1O | 1.343%
Cc1ccc(CNCC2CCc3nnc(C(C)C)n3C2)s1 (centres undefined) | -31.35%
CCc1ncncc1C(=O)N1CCN(Cc2c(C)noc2C)CC1 | 0.2445%
COc1ccc(CCC(=O)N(C)CCN2CCOCC2)cc1OC | -4.579%
O=C(c1ccco1)N1CCC2(CCCN(c3ncc(F)cn3)C2)C1 (centres undefined) | 10.29%
COc1ccc(S(=O)(=O)NCc2cccnc2N(C)C)cc1 | 2.202%
O=C1CN(Cc2ccc3ccccc3n2)CCN1C1CCCC1 | 8.248%

Some entries from above, unchanged:

With CN(C)Cc1nn(C)c2c1CN(C(=O)c1cccc(C#N)c1)C2 the screen gave 15.7%.
With Cc1nc(C)n(CC2CCCN2Cc2cn3cc(Cl)ccc3n2)n1 (centres undefined) the screen gave 4.666%.
With O=C(NCC1CCCO1)c1csc(Cc2ccccc2)n1 (centres undefined) the screen gave 22.2%.
With O=C(CCc1ccccc1)N1CCCCC1Cn1cccn1 (centres undefined) the screen gave 4.592%.
With CCn1c(C(=O)N2CCN(C(=O)COC)CC2)cc2ccccc21 the screen gave 12.1%.
With Cc1ccc(CNCC2CCc3nnc(C(C)C)n3C2)s1 (centres undefined) the screen gave -31.35%.

Source: ChEMBL document CHEMBL3988442, “University of Dundee, Small-Polar-MMV Screening Library” (2021).